In the supplement of paper PMC10849652:
The other results are listed elsewhere or left out.

The chains behind the UniProt entries cited, without tags or fusion partners. Where a name states a change or a piece, a line headed by the entry shows the natural chain unless it says otherwise.
UniProt Q10567: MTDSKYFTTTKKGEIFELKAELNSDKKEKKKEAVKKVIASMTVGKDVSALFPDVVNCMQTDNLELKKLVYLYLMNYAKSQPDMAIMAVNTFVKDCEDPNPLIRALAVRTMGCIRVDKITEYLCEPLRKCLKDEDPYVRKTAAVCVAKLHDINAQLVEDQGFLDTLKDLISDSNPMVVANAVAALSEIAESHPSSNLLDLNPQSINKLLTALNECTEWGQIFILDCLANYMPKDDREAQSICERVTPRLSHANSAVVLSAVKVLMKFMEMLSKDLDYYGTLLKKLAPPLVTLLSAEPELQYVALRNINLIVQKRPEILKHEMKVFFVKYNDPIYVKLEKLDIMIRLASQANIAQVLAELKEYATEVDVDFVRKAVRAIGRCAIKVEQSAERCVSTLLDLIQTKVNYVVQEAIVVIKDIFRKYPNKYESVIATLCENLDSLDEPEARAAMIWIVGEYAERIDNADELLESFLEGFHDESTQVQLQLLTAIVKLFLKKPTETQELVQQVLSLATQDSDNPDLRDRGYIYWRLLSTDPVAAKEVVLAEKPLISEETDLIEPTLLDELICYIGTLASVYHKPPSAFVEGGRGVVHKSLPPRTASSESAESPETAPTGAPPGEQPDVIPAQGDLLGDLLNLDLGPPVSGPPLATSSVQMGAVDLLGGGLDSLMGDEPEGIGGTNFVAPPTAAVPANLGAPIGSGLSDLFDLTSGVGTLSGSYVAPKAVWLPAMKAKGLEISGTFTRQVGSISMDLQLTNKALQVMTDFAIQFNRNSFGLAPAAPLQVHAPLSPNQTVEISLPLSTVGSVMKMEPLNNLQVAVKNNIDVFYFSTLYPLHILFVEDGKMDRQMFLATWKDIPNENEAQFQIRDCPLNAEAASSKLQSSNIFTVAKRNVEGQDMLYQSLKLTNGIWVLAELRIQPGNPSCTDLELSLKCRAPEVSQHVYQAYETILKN
UniProt P06727: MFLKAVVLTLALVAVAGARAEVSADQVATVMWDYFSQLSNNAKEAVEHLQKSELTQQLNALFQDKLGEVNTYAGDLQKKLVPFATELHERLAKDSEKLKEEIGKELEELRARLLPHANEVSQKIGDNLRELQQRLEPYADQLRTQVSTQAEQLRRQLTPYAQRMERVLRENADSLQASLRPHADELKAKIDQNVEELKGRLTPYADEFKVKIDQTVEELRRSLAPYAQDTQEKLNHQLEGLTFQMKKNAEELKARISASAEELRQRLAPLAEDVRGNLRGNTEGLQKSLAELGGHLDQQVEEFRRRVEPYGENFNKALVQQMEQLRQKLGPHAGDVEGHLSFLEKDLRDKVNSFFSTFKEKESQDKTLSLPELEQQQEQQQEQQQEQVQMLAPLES
UniProt Q9BZZ5: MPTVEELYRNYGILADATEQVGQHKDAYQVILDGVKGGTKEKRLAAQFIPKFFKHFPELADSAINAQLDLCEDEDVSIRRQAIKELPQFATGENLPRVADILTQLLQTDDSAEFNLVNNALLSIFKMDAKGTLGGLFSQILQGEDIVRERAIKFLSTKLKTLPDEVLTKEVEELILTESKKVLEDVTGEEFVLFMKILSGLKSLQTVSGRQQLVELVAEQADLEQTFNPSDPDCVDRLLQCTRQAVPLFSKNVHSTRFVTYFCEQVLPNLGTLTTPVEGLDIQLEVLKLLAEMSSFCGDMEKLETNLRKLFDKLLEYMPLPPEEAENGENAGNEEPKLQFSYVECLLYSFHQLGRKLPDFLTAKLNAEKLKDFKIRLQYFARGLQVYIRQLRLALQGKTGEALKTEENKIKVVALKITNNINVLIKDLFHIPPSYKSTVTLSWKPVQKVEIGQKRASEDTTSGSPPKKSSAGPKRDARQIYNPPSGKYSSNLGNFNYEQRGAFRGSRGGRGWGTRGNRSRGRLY
UniProt Q9UNK9: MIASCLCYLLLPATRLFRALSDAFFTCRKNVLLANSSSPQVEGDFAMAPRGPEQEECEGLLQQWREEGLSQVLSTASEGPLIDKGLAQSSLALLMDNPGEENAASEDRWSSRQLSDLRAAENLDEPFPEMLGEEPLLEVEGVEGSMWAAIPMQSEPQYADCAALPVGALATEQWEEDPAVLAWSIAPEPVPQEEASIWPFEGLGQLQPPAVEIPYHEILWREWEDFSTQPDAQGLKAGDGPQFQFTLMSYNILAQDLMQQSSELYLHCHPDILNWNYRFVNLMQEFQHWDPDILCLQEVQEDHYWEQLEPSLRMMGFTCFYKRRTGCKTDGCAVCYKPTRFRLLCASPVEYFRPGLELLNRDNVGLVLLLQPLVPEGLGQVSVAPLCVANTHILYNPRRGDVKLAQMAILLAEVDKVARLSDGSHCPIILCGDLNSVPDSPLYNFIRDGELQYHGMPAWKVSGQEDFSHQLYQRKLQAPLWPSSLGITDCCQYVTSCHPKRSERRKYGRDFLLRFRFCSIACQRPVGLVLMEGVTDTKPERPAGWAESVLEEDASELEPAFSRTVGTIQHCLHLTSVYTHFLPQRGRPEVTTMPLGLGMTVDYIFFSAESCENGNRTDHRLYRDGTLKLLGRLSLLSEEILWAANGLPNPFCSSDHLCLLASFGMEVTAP
UniProt Q92625: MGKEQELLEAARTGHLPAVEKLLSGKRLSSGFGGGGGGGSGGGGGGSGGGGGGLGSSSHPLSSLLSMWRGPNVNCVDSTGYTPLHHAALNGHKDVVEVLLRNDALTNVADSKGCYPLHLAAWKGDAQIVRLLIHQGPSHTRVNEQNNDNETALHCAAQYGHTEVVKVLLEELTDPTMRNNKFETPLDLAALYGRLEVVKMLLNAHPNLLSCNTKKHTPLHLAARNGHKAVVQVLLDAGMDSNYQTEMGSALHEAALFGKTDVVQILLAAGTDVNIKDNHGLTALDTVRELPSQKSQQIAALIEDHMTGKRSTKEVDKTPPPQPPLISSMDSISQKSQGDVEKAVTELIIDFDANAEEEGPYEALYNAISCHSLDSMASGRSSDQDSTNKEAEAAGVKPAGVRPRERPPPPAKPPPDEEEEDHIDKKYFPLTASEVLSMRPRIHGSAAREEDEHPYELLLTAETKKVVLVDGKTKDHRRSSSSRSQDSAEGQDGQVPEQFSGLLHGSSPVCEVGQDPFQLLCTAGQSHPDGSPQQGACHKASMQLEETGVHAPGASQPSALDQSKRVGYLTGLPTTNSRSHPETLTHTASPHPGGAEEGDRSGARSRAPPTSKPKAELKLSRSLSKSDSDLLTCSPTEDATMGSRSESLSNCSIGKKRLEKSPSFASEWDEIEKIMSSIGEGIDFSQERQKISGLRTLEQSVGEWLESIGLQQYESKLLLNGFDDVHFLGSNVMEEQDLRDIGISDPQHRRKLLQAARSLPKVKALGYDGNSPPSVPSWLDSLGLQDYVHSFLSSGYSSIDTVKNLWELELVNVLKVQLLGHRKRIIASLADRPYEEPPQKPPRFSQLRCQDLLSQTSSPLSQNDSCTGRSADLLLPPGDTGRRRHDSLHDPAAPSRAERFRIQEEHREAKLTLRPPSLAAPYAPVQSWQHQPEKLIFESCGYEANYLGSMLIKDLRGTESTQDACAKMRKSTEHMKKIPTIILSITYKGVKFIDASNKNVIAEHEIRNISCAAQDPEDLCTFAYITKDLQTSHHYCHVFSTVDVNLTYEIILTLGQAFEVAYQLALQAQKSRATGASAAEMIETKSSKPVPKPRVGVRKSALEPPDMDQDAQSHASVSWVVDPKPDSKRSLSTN
UniProt Q99767, whole entry, looked up: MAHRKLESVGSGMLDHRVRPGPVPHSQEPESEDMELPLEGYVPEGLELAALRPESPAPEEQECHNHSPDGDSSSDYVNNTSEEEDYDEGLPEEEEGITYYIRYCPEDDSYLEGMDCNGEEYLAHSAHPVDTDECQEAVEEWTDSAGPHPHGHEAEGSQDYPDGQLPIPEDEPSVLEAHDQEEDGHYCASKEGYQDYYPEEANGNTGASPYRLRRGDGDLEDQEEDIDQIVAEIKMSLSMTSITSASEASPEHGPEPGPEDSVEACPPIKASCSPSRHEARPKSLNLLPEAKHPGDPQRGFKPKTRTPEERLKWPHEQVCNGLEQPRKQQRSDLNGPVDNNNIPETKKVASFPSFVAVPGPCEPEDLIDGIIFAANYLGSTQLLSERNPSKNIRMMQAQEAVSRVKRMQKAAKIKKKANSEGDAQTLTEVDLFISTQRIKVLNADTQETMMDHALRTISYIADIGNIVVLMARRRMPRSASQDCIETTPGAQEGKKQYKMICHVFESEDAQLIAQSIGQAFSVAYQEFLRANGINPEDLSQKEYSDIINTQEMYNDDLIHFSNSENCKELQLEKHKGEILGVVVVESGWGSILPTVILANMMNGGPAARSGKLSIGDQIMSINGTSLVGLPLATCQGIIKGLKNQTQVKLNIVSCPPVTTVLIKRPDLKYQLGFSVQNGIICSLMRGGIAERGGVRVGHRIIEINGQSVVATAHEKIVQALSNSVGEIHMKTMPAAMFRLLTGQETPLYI
UniProt O14791: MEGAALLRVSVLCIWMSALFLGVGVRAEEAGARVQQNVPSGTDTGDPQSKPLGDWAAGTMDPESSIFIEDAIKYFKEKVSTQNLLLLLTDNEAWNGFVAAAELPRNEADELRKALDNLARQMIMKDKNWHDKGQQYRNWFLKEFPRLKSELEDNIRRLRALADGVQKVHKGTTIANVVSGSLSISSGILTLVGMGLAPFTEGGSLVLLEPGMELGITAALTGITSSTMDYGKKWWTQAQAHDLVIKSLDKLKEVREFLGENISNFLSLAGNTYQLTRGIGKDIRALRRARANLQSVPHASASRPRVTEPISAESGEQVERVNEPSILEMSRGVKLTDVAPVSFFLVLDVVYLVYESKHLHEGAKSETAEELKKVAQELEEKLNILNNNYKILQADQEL
UniProt P02656: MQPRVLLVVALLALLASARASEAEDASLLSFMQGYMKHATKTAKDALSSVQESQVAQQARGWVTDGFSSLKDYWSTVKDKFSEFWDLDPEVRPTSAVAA
UniProt Q8IW19: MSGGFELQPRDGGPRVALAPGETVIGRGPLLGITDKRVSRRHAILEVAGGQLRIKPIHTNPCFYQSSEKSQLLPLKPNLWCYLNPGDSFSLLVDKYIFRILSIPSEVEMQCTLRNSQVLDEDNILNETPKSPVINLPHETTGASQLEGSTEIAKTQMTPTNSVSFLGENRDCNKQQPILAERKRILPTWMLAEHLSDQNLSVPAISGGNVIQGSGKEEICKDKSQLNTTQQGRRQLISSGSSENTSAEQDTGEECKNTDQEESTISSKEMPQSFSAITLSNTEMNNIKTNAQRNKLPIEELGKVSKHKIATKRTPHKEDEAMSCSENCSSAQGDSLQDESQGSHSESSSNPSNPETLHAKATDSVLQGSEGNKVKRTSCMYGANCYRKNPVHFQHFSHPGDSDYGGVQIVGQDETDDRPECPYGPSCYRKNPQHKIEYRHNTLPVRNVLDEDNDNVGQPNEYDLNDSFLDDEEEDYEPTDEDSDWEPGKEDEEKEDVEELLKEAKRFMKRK
UniProt Q96NW4, whole entry, looked up: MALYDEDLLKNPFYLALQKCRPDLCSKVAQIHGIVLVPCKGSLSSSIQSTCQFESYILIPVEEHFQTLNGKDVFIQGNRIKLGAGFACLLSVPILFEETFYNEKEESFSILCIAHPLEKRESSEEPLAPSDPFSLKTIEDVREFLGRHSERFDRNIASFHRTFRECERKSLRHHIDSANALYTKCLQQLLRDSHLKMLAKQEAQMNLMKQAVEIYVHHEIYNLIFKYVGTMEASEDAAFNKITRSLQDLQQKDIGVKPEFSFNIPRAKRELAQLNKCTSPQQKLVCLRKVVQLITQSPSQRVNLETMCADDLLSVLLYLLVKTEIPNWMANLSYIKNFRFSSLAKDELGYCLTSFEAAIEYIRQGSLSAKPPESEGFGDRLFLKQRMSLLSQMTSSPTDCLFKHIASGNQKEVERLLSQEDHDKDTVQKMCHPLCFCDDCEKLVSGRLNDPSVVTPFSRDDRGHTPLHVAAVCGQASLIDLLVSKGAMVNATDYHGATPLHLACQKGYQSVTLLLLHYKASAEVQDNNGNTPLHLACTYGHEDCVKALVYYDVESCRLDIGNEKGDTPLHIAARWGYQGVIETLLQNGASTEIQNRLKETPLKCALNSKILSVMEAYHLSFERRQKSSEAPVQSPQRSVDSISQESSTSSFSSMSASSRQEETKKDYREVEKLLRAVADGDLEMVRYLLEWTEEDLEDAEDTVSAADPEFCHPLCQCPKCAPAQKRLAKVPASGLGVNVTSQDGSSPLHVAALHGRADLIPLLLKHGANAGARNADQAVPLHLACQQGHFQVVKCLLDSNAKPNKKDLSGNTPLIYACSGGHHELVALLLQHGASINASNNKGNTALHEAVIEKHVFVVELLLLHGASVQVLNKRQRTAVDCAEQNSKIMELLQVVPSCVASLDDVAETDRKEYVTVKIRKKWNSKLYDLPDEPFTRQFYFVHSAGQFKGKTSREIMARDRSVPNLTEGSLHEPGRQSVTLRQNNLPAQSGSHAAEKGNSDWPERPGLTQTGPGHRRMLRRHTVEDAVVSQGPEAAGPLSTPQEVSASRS

Tests used:
Assay in all cases: log2 fold change, soluble protein after heating vs DMSO (PISA); higher = thermal stabilisation; K562 cells, 10 uM, 30 min; active = over 0.2 and 3.5 SD of the protein, either way, in both replicates (recomputed)
[1] = compound: C/C(=N\NC(=O)C1=CC(=CC=C1)S(=O)(=O)N2CCOCC2)/C3=C(C=CC(=C3)Cl)O
How it was run: (§1)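 K562 cells (2×10^6 cells/mL) were treated with 10 μM compound for 30 min, and aliquots were heated for 3 min over 48°C-58°C. Pooled aliquots were extracted in PBS with 0.5% NP-40 at 4°C, and the supernatant after 21,000xg for 90 min was measured by TMTpro 16plex LC-MS/MS with channel sums equalised. Reported thermal stability, relative to control samples and from duplicates, is a log2 fold change.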

[2] = compound: C1=CC(=C(C=C1Cl)C2=NC3=NC=CN=C3C(=N2)NC4=CC=NC=C4)F
How it was run: as §1

[3] = compound: C1=CC2=C(C=CC(=C2)/C=C\3/C(=O)NC(=NCC4=CC=CS4)S3)N=C1
How it was run: as §1

[4] = compound: C1=CC=C(C=C1)C2=NC(=C(N2)C3=CC=NC=C3)C4=CC(=C(C=C4)Cl)O
How it was run: as §1

[5] = compound: C1=CC=C2C(=C1)C3=NNC4=CC=CC(=C43)C2=O
How it was run: as §1

[6] = compound: C1CCN(C1)C(=O)NC2=CC=CC(=C2)NC3=NC=C(C(=N3)NCCC4=CN=CN4)Br
How it was run: as §1

[7] = compound: C1CN(CCC1(CC2=CC=C(C=C2)Cl)N)C3=NC=NC4=C3C=CN4
How it was run: as §1

[8] = compound: C1=CC2=NC=CN=C2C=C1/C=C/3\C(=O)NC(=O)S3
How it was run: as §1

[9] = compound: C#Cc1cccc(Nc2ncnc3cc(OCCOC)c(OCCOC)cc23)c1 [erlotinib]
How it was run: as §1

[10] = compound: C1=CC(=CC=C1C2=NC3=C(N2)C=C(C=C3)C(=O)N)OC4=CC=C(C=C4)Cl
How it was run: as §1

Measured: log2 fold change

AP1B1 isoform 3 (UniProt Q10567)
inactive: [1] 0.028 | [2] 0.263 | [3] 0.016 | [4] 0.076 | [5] -0.005 | [6] -0.07 | [7] 0.042

APOA4 (UniProt P06727)
inactive: [1] -0.282 | [2] 0.137 | [3] 0.262 | [8] 0.019 | [4] 0.017 | [5] -0.183 | [6] 0.042 | [7] 0.15

AP1S2 (UniProt P56377)
inactive: [1] 0.331 | [2] 0 | [3] -0.223 | [8] 0.027 | [5] -0.067

AREL1 (UniProt O15033)
inactive: [1] 0.072 | [3] 0.019 | [5] 0.031

ARID1B isoform 3 (UniProt Q8NFD5)
inactive: [8] 0.017 | [4] 0.276

AP2M1 (UniProt C9JTK4)
inactive: [1] -0.114 | [2] 0.036 | [3] 0.322 | [8] 0.172 | [5] -0.12 | [6] 0.084 | [7] -0.065

APOBEC3F (UniProt Q8IUX4)
inactive: [1] -0.295 | [2] -0.208 | [3] -0.21 | [8] 0.326 | [4] -0.05 | [5] -0.023

ARHGAP22 isoform 2 (UniProt Q7Z5H3)
inactive: [4] 0.081 | [6] -0.241 | [7] 0.048

ANKRD26 (UniProt Q9UPS8)
inactive: [1] 0.109 | [3] -0.033 | [4] 0.023 | [5] -0.038 | [6] -0.002 | [7] 0.073

ANXA2 (UniProt H0YMT9)
inactive: [2] 0.238 | [8] 0.123

Taken from the listing (six entries):
AP1S2 (UniProt P56377)
inactive: [1] 0.331 | [2] 0 | [3] -0.223 | [8] 0.027 | [5] -0.067

AREL1 (UniProt O15033)
inactive: [1] 0.072 | [3] 0.019 | [5] 0.031

ARID1B isoform 3 (UniProt Q8NFD5)
inactive: [8] 0.017 | [4] 0.276

AP2M1 (UniProt C9JTK4)
inactive: [1] -0.114 | [2] 0.036 | [3] 0.322 | [8] 0.172 | [5] -0.12 | [6] 0.084 | [7] -0.065

APOBEC3F (UniProt Q8IUX4)
inactive: [1] -0.295 | [2] -0.208 | [3] -0.21 | [8] 0.326 | [4] -0.05 | [5] -0.023

ARHGAP22 isoform 2 (UniProt Q7Z5H3)
inactive: [4] 0.081 | [6] -0.241 | [7] 0.048

(cont.)

API5 isoform 1 (UniProt Q9BZZ5)
inactive: [1] -0.042 | [2] 0.187 | [3] -0.017 | [5] 0.13 | [6] -0.013 | [7] 0.041

ANKRD13C (UniProt Q8N6S4)
inactive: [1] -0.277 | [2] -0.076 | [3] -0.088 | [5] 0.166 | [6] -0.022 | [7] -0.142

ARFIP1 isoform 2 (UniProt P53367)
inactive: [9] 0.106 | [2] -0.064 | [10] -0.051 | [8] -0.06

ANGEL1 (UniProt Q9UNK9)
inactive: [8] 0.161 | [4] -0.107 | [6] -0.149 | [7] 0.092

ANKS1A (UniProt Q92625)
inactive: [1] -0.316 | [2] -0.016 | [3] 0.215 | [8] 0.123 | [4] 0.028 | [5] 0.136 | [6] -0.082 | [7] -0.097

APBA2 (UniProt Q99767)
inactive: [2] 0.04

ARID4B (UniProt Q4LE39)
inactive: [6] 0.126 | [7] -0.03

APH1B (UniProt Q8WW43)
inactive: [1] 0.213 | [3] -0.067 | [5] -0.08

APOL1 isoform 2 (UniProt O14791)
inactive: [8] -0.152 | [6] -0.153 | [7] 0.314

ANKRD16 (UniProt Q6P6B7)
inactive: [9] -0.039 | [2] -0.067 | [10] 0.013 | [8] 0.016

APOC3 (UniProt P02656)
inactive: [1] -0.083 | [2] 0.231 | [3] 0.148 | [8] 0.042 | [4] -0.379 | [5] -0.017 | [6] -0.298 | [7] -0.082

APLF (UniProt Q8IW19)
inactive: [1] -0.028 | [3] 0.306 | [5] -0.22

APOBEC3B (UniProt Q9UH17)
inactive: [4] -0.05

ANKRD27 (UniProt Q96NW4)
inactive: [4] -0.093

APPBP2 (UniProt Q92624)
inactive: [8] 0.033 | [4] -0.035 | [6] -0.087 | [7] -0.069
